Measurements reported in PubChem BioAssay AID1259405 (NCATS, 2018)
Shown is one part, drawn at random, of about 50,000 deposited reagents. In the full data, about 4,000 (8%) were called active. 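Mouse siRNA library applied to hamster cells; one well for each siRNA.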 Entries without a mark were called inactive. Reagents against one gene are numbered here.

Purpose: 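Mouse-designed siRNAs used to find CHO productivity engineering targets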 (primary screen)
System: Chinese hamster CHO-K1 ovary cells with stable secreted eGFP expression
Knock-down reagent: single siRNA against mouse genes, 0.8 pmol siRNA per well (2 µl of 400 nM stock)
Time to read-out: 3 days
Detection: 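Per-well intracellular GFP measured by laser scanning cytometry, plus viability from ATP luminescence, each relative to plate median of non-targeting control wells, in %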
Reading the numbers: GFP, % of control: higher = more GFP per well, higher productivity; viability (ATP), % of control: higher = more viable cells (more ATP)
Rule for the call: 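a knock-down is called active if GFP reaches 120% or more of non-targeting control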

gene	siRNA no.	GFP, % of control	viability (ATP), % of control
Art2b (ADP-ribosyltransferase 2b)	1	74.5	76.2
Art2b (ADP-ribosyltransferase 2b)	2	73.7	85.5
Art2b (ADP-ribosyltransferase 2b)	3	54.3	57.4
Tomm70a (translocase of outer mitochondrial membrane 70A)	1	110	117
Tomm70a (translocase of outer mitochondrial membrane 70A)	2	74.2	74.1
Kctd8 (potassium channel tetramerisation domain containing 8)	1	94.9	107
Kctd8 (potassium channel tetramerisation domain containing 8)	2	50	47.8
Kctd8 (potassium channel tetramerisation domain containing 8)	3	53.5	67.3
Slc1a5	1	70	47.7
Slc1a5	2	89.8	77.2
Slc1a5	3	96.5	79
Plac8 (placenta-specific 8)	1	68.8	57.4
Plac8 (placenta-specific 8)	2	69.6	25.8
Plac8 (placenta-specific 8)	3	103	75
Gm5941 (predicted gene 5941)	1	76.7	71.6
Gm5941 (predicted gene 5941)	2	75.7	81.6
Gm5941 (predicted gene 5941)	3	60.1	80.7
Rhox6 (reproductive homeobox 6)	1	54.9	60.4
Rhox6 (reproductive homeobox 6)	2	27	31.1
Rhox6 (reproductive homeobox 6)	3	125 (active)	112
Slc35b4	1	23.6	54.8
Slc35b4	2	77.1	91.9
Slc35b4	3	92.4	105
Ugt2a3 (UDP glucuronosyltransferase 2 family, polypeptide A3)	1	70.5	81.1
Ugt2a3 (UDP glucuronosyltransferase 2 family, polypeptide A3)	2	63.5	89.6
Ugt2a3 (UDP glucuronosyltransferase 2 family, polypeptide A3)	3	53.3	67.4
Vmn1r42 (vomeronasal 1 receptor 42)	1	104	95.2
Vmn1r42 (vomeronasal 1 receptor 42)	2	114	58.1
Vmn1r42 (vomeronasal 1 receptor 42)	3	78.9	88.4
Rrp7a (ribosomal RNA processing 7 homolog A)	1	94.3	77.5
Rrp7a (ribosomal RNA processing 7 homolog A)	2	150 (active)	67.5
Rrp7a (ribosomal RNA processing 7 homolog A)	3	135 (active)	70.1
Bcl2l10 (Bcl2-like 10)	1	53	50.5
Bcl2l10 (Bcl2-like 10)	2	53.1	55.9
Fgd6 (FYVE, RhoGEF and PH domain containing 6)	1	76.1	61.5
Fgd6 (FYVE, RhoGEF and PH domain containing 6)	2	64.9	76.6
Fgd6 (FYVE, RhoGEF and PH domain containing 6)	3	47.4	53.6
Saa3 (serum amyloid A 3)	1	82.8	81.3
Saa3 (serum amyloid A 3)	2	75.3	65.8
Saa3 (serum amyloid A 3)	3	38.2	69.5
Or4x6 (olfactory receptor family 4 subfamily X member 6)	1	77.6	59.1
Or4x6 (olfactory receptor family 4 subfamily X member 6)	2	44.2	53
Or4x6 (olfactory receptor family 4 subfamily X member 6)	3	92.9	91.6
Rhd (Rh blood group, D antigen)	1	121 (active)	68.5
Rhd (Rh blood group, D antigen)	2	65.4	82.2
Rhd (Rh blood group, D antigen)	3	82	72.5
Rbmxl1 (RNA binding motif protein, X-linked like-1)	1	57.1	43.9
Rbmxl1 (RNA binding motif protein, X-linked like-1)	2	93.7	76.7
Rbmxl1 (RNA binding motif protein, X-linked like-1)	3	146 (active)	102
Zfhx4 (zinc finger homeodomain 4)	1	207 (active)	70.7
Zfhx4 (zinc finger homeodomain 4)	2	75.1	75.4
Zfhx4 (zinc finger homeodomain 4)	3	54.4	47.8
Evc (EvC ciliary complex subunit 1)	1	73	92.4
Evc (EvC ciliary complex subunit 1)	2	115	115
Evc (EvC ciliary complex subunit 1)	3	67.7	64.3
Dvl2 (dishevelled segment polarity protein 2)	1	90.7	84.6
Dvl2 (dishevelled segment polarity protein 2)	2	44.7	57
Dvl2 (dishevelled segment polarity protein 2)	3	106	86.2
Ubap1 (ubiquitin-associated protein 1)	1	47.7	78.8
Ubap1 (ubiquitin-associated protein 1)	2	78.4	81.2
Ubap1 (ubiquitin-associated protein 1)	3	79.5	90.7
Met (met proto-oncogene, receptor tyrosine kinase)	1	95.9	112
Pdhx (pyruvate dehydrogenase complex, component X)	1	53.7	65.5
Pdhx (pyruvate dehydrogenase complex, component X)	2	104	73.5
Itm2b (integral membrane protein 2B)	1	78	62.8
Itm2b (integral membrane protein 2B)	2	69.2	58.5
Itm2b (integral membrane protein 2B)	3	109	65.3
Rims4 (regulating synaptic membrane exocytosis 4)	1	74.9	67.5
Rims4 (regulating synaptic membrane exocytosis 4)	2	111	76.8
Rims4 (regulating synaptic membrane exocytosis 4)	3	55.4	54.4
Scrib (scribbled planar cell polarity)	1	57	81.1
Scrib (scribbled planar cell polarity)	2	20.7	40.1
Scrib (scribbled planar cell polarity)	3	76.5	84.8
Adora1 (adenosine A1 receptor)	1	104	86.8
Adora1 (adenosine A1 receptor)	2	70.8	71.5
Adora1 (adenosine A1 receptor)	3	89.3	62.9
Gnao1 (guanine nucleotide binding protein, alpha O)	1	38.9	50.2
Gnao1 (guanine nucleotide binding protein, alpha O)	2	72.3	81.8
Gnao1 (guanine nucleotide binding protein, alpha O)	3	47.4	65.7
Cdc26 (cell division cycle 26)	1	102	106
Cdc26 (cell division cycle 26)	2	105	106
Cdc26 (cell division cycle 26)	3	89.6	89.9
Lancl1 (LanC (bacterial lantibiotic synthetase component C)-like 1)	1	60.5	103
Lancl1 (LanC (bacterial lantibiotic synthetase component C)-like 1)	2	65.9	77.2

Records above whose gene name starts with R or r (15):
gene	siRNA no.	GFP, % of control	viability (ATP), % of control
Rhox6 (reproductive homeobox 6)	1	54.9	60.4
Rhox6 (reproductive homeobox 6)	2	27	31.1
Rhox6 (reproductive homeobox 6)	3	125 (active)	112
Rrp7a (ribosomal RNA processing 7 homolog A)	1	94.3	77.5
Rrp7a (ribosomal RNA processing 7 homolog A)	2	150 (active)	67.5
Rrp7a (ribosomal RNA processing 7 homolog A)	3	135 (active)	70.1
Rhd (Rh blood group, D antigen)	1	121 (active)	68.5
Rhd (Rh blood group, D antigen)	2	65.4	82.2
Rhd (Rh blood group, D antigen)	3	82	72.5
Rbmxl1 (RNA binding motif protein, X-linked like-1)	1	57.1	43.9
Rbmxl1 (RNA binding motif protein, X-linked like-1)	2	93.7	76.7
Rbmxl1 (RNA binding motif protein, X-linked like-1)	3	146 (active)	102
Rims4 (regulating synaptic membrane exocytosis 4)	1	74.9	67.5
Rims4 (regulating synaptic membrane exocytosis 4)	2	111	76.8
Rims4 (regulating synaptic membrane exocytosis 4)	3	55.4	54.4
